The values below come from PMC11199487, “Hub stability in the calcium calmodulin-dependent protein kinase II” (Communications Biology, 2024).

By UniProt entry, the sequences of proteins in these tests, tags left out. Residues count along the entry.
UniProt P08413, residues 1-314: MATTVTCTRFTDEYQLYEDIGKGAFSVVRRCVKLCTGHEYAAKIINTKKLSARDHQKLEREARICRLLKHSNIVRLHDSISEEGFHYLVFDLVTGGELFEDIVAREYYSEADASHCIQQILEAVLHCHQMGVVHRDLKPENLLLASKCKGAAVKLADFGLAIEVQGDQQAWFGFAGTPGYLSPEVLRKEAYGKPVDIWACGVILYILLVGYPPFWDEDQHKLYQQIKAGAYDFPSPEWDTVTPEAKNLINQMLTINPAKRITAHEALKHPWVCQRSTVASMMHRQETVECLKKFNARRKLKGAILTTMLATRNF

The test concerns the target monomeric 6His-V15-rCaMKIIβ (Venus-tagged kinase domain, association domain removed from residue 315) (rat) (UniProt P08413). Nature of the test: single-molecule TIRFM (spot intensity and photobleaching steps); Venus-tagged CaMKII stock diluted >1000x in AB- buffer, immobilised on a GFP antibody-coated coverslip, unbound protein washed out, room temperature; both purified.

Results are given in words; binding and its absence hold for the method and conditions named.

In the case of “monomeric 6His-V15-rCaMKIIβ (Venus-tagged kinase domain, association domain removed from residue 315) (from UniProt P08413 1-314) (domain or fragment)”, the binding entry is on record as “no binding”.
